{"sequences": {"note": "Amino acid sequences for entries named in this document (tags omitted). A change or cut given only in a name is not applied to a line headed by its entry. Residues count along the entry.", "UniProt P01100": "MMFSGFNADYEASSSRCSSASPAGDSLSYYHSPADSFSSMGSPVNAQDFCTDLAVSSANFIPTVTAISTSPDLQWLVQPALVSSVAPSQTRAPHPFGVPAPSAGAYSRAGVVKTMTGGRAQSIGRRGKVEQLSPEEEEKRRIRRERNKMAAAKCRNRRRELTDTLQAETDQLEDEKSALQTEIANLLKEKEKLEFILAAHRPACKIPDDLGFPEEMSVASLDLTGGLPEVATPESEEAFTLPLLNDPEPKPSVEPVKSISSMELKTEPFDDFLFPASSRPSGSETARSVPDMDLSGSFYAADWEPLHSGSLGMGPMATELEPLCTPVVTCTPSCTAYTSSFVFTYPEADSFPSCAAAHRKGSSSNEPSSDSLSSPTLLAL", "UniProt P05412": "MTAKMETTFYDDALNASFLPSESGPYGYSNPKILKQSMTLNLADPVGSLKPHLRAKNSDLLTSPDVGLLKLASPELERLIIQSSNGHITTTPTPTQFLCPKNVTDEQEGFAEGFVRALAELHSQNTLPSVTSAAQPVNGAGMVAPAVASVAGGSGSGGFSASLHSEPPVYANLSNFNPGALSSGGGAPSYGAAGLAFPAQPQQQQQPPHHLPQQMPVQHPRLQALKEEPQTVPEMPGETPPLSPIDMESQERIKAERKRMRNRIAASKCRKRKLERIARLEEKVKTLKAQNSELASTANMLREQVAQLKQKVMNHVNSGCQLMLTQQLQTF", "UniProt Q09472": "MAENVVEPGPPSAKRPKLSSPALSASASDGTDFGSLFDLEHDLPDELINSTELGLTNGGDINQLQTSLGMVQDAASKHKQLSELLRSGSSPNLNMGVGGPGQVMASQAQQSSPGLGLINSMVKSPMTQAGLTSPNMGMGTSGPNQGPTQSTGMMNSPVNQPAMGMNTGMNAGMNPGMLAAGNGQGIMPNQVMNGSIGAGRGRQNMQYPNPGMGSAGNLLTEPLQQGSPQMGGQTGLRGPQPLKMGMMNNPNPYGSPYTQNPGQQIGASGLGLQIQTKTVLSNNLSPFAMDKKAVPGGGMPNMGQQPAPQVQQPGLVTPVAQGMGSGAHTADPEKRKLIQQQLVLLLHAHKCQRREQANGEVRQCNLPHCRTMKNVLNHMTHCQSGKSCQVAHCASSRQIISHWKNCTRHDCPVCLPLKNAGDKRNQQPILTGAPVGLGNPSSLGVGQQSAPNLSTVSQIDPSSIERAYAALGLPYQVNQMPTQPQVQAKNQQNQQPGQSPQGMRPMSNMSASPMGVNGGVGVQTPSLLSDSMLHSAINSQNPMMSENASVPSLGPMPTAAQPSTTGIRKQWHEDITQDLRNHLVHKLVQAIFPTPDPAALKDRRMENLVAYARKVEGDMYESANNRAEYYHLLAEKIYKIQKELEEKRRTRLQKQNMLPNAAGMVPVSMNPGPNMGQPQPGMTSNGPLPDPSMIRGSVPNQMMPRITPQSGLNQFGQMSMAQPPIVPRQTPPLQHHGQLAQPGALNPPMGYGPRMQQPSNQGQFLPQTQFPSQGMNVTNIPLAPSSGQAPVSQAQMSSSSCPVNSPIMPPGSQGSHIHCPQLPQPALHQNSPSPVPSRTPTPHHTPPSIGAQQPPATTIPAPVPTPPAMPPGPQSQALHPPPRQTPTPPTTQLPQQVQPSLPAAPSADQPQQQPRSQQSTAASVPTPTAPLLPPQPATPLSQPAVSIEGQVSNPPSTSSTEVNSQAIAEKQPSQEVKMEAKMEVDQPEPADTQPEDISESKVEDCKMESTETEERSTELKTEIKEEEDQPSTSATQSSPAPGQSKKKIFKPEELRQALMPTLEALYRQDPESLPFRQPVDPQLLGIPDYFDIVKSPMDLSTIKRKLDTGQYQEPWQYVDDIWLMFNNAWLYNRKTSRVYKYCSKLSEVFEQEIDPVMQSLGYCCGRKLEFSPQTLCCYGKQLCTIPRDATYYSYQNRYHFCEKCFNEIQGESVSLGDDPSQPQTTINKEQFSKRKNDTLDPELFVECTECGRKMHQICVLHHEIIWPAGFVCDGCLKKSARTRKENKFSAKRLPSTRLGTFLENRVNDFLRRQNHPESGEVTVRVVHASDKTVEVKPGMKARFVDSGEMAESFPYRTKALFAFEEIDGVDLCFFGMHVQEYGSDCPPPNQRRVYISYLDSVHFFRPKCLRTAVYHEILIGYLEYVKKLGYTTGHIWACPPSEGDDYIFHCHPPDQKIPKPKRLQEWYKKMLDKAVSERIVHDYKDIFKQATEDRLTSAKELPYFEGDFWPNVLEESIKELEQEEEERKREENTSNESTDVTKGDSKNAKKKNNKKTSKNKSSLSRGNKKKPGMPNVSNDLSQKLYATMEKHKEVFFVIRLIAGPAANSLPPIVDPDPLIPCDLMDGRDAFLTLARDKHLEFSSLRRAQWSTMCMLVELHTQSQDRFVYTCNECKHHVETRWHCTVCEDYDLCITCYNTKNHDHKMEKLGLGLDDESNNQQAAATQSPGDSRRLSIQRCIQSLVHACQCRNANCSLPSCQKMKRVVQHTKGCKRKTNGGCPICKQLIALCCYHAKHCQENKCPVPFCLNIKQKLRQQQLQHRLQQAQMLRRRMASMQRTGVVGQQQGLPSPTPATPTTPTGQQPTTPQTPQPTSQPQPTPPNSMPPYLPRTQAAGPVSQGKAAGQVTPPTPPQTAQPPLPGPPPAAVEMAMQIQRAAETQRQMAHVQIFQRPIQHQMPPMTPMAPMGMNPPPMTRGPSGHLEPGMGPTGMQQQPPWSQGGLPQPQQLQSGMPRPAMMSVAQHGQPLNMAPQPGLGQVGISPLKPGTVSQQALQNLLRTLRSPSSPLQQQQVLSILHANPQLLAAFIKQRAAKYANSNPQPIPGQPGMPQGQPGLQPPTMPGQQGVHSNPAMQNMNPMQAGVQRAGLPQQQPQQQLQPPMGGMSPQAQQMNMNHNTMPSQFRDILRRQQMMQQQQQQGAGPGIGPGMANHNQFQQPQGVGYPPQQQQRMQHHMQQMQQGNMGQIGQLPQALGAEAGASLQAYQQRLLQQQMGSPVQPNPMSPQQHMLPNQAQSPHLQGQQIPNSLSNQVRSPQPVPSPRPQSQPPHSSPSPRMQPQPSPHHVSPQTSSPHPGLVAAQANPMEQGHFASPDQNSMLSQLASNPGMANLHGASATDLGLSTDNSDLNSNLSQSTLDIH", "endogenous p300 of Daudi Burkitt lymphoma cells": "residues 2-2414 of Q09472", "UniProt P56279": "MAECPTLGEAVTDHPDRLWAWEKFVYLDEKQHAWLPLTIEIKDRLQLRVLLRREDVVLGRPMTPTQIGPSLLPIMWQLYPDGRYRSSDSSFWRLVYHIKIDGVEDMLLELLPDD"}, "source": "patent US20110311555A1", "key": {"[1]": {"target": "T1, JunB (expression construct in pCMV-SPORT6 vector, ATCC) (UniProt P17275)", "T1 sequence (looked up)": "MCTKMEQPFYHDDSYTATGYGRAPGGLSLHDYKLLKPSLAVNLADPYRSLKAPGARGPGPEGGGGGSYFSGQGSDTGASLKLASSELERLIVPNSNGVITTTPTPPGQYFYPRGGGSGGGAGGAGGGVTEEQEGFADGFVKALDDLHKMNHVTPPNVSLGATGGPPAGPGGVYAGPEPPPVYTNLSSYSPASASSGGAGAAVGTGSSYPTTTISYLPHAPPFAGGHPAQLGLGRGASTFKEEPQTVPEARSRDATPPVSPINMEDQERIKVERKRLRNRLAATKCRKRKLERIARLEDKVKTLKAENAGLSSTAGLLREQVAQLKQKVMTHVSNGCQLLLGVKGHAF", "assay": "co-immunoprecipitation, 293 cells cotransfected with myc-Tcl1 T38I and JunB (FIG. 2F)"}, "[2]": {"target": "c-Fos-V5 (construct bought from Invitrogen) (UniProt P01100)", "assay": "co-immunoprecipitation, 293 cells cotransfected with myc-Tcl1 T38I and c-Fos-V5 (FIG. 2D)"}, "[3]": {"target": "c-Jun-HA (c-Jun ORF in pCMV-HA vector) (UniProt P05412)", "assay": "co-immunoprecipitation, 293 cells cotransfected with myc-Tcl1 T38I and c-Jun-HA (FIG. 2E)"}, "[4]": {"target": "endogenous c-Jun (293 cells and Daudi cells, induced with PMA and ionomycin) (UniProt P05412)", "assay": "co-immunoprecipitation, 293 cells transfected with myc-Tcl1, treated with PMA and ionomycin (FIG. 2G)"}, "[5]": {"target": "p300-HA (construct bought from Upstate Biotechnology) (UniProt Q09472)", "assay": "co-immunoprecipitation, 293 cells cotransfected with p300-HA and Omni-Tcl1 (FIG. 1C upper, legend)"}, "[6]": {"target": "c-Fos-V5 (construct bought from Invitrogen) (UniProt P01100)", "assay": "immunofluorescence colocalization, 293 cells cotransfected with c-Jun-HA, c-Fos-V5 and Omni-Tcl1 (FIG. 3; yellow = c-Fos and Tcl1)"}, "[7]": {"target": "p300-HA (construct bought from Upstate Biotechnology) (UniProt Q09472)", "assay": "co-immunoprecipitation, 293 cells cotransfected with p300-HA and Omni-Tcl1 (FIG. 1C upper)"}, "[8]": {"target": "c-Fos-V5 (construct bought from Invitrogen) (UniProt P01100)", "assay": "co-immunoprecipitation, 293 cells cotransfected with c-Fos-V5 and CMV5-Tcl1 T38I (FIG. 2C)"}, "[9]": {"target": "p300-HA (construct bought from Upstate Biotechnology) (UniProt Q09472)", "assay": "co-immunoprecipitation (data not shown)"}, "[10]": {"target": "c-Fos-V5 (construct bought from Invitrogen) (UniProt P01100)", "assay": "co-immunoprecipitation, 293 cells cotransfected with c-Fos-V5 and CMV5-Tcl1 WT (FIG. 2C)"}, "[11]": {"target": "endogenous p300 of Daudi Burkitt lymphoma cells (UniProt Q09472)", "assay": "co-immunoprecipitation of endogenous proteins, Daudi cells (FIG. 1C lower)"}, "[12]": {"target": "endogenous p300 of Daudi Burkitt lymphoma cells (UniProt Q09472)", "assay": "co-immunoprecipitation of endogenous proteins, Daudi cells (FIG. 1C lower, legend)"}, "[13]": {"target": "endogenous c-Jun (293 cells and Daudi cells, induced with PMA and ionomycin) (UniProt P05412)", "assay": "co-immunoprecipitation of endogenous proteins, Daudi cells treated with PMA and ionomycin (FIG. 2H)"}}, "note": "Results are given in words; binding and its absence hold for the method and conditions named. For some of these results: Binding seen in cells or lysates may run through a third protein. Some binding calls cover weakened binding; strength is not graded here.", "data": [{"substance": "2×Myc-Tcl1 T38I (from UniProt P56279 1-114)", "values": [{"measurement": "binding", "setting": "[1]", "value": "binds"}, {"measurement": "binding", "setting": "[2]", "value": "binds"}, {"measurement": "binding", "setting": "[3]", "value": "binds"}]}, {"substance": "2×Myc-Tcl1 WT (from UniProt P56279 1-114)", "values": [{"measurement": "binding", "setting": "[4]", "value": "binds"}]}, {"substance": "Omni-Tcl1 (full-length human TCL1 ORF in pcDNA4-HisMaxC) (from UniProt P56279 1-114)", "values": [{"measurement": "binding", "setting": "[5]", "value": "binds"}, {"measurement": "binding", "setting": "[6]", "value": "binds"}, {"measurement": "binding", "setting": "[7]", "value": "binds"}]}, {"substance": "Tcl1 T38I (pCMV5-TCL1 T38I construct) (from UniProt P56279 1-114)", "values": [{"measurement": "binding", "setting": "[8]", "value": "binds"}]}, {"substance": "Tcl1 T38I mutant, construct not stated (from UniProt P56279 1-114)", "values": [{"measurement": "binding", "setting": "[9]", "value": "binds"}]}, {"substance": "Tcl1 WT (pCMV5-TCL1 WT construct, full-length human TCL1 ORF) (from UniProt P56279 1-114)", "values": [{"measurement": "binding", "setting": "[10]", "value": "binds"}]}, {"substance": "endogenous Tcl1 of Daudi Burkitt lymphoma cells (from UniProt P56279 1-114)", "values": [{"measurement": "binding", "setting": "[11]", "value": "binds"}, {"measurement": "binding", "setting": "[12]", "value": "binds"}, {"measurement": "binding", "setting": "[13]", "value": "binds"}]}]}
